Assay results from PubChem BioAssay AID743255 (National Center for Advancing Translational Sciences (NCATS), 2014).
The whole screen tested about 390,000 compounds, of which about 910 (0.23%) were called active. This list was built around the results that the source calls inconclusive (neither active nor inactive); the mix of calls is not that of the screen. Calls follow the shape of the dose curve; as a rule, active = well fitted inhibition curve with a large enough effect; inconclusive = small, poorly fitted or top-dose-only effect; inactive = no such curve, though single readings can be large or run the other way. Potencies beside an inconclusive call are fits to weak or partial responses and may not hold up.

Sequences of proteins named here, by UniProt entry; tags and fusion partners are left off. A change or cut given only in a name is not applied to a line headed by its entry.
UniProt O94782: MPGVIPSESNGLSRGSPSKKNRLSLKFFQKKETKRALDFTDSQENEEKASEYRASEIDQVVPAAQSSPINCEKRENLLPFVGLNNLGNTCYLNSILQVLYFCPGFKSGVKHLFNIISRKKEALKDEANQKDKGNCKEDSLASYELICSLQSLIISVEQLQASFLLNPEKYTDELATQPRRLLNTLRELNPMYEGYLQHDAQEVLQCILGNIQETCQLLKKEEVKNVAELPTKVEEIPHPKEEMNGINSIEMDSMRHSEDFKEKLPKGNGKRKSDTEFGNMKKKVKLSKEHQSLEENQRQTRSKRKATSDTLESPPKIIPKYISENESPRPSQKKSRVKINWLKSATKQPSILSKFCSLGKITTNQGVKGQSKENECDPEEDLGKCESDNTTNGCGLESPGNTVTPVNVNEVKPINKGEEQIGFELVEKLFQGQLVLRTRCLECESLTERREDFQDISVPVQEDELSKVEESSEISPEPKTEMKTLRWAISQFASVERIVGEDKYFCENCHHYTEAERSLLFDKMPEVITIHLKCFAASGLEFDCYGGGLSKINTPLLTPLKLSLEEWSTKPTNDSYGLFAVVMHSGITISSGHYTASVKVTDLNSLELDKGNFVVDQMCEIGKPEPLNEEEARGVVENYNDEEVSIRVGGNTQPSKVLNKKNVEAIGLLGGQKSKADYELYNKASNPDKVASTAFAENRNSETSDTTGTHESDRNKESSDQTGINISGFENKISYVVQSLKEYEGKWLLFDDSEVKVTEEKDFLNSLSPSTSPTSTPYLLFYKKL

Target: Ubiquitin carboxyl-terminal hydrolase 1 (Homo sapiens) (UniProt O94782)
Experiment: Inhibitors of USP1/UAF1: Primary Screen; also: nearly all actives have a fitted effect of over 60% in size
Conditions: recombinant USP1/UAF1, Ub-Rhodamine cleavage fluorescence; series mostly up to 57.1 µM
Summary of the method: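 Step one: compound is pinned into 1nM USP1/UAF1 in HEPES pH 7.8 buffer with TCEP. Step two: 15 min room-temperature incubation. Step three: Ub-Rho (150nM final) starts cleavage, tracked by fluorescence over six one-minute reads.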
Potency is read from the fitted curve at half-maximal effect.

Potency, inconclusive:
Cc1cccc(N(C(=O)Nc2ccccc2)C2=NCC(C)S2)c1 (centres undefined) 0.631 µM [inhibitor, full curve, poor fit]
COC(=O)[C@H]1C[C@H](OC(=O)NCC2CCCCC2)[C@@]2(O)CN(S(=O)(=O)c3ccc(C)cc3)CC2[C@H]1C(=O)OC (some centres undefined) 79.4 µM [inhibitor, partial curve, poor fit]
CCOC(=O)Cc1csc(NC(=O)c2ccc(C)o2)n1 50.1 µM [inhibitor, partial curve, poor fit]
O=C(C1CCN(S(=O)(=O)c2ccccc2)CC1)N1CCCCC1 5.62 µM [inhibitor, partial curve]
Brc1cc2c(cc1CSc1ncccn1)OCO2 31.6 µM [inhibitor, single point]
O=C(CC1Oc2ccccc2NC1=O)NC1CCCC1 (centres undefined) 0.447 µM [inhibitor, full curve, poor fit]
CCOC(=O)c1ccc(NC(=O)c2cn(-c3ccccc3)nc2-c2ccc(C)cc2)cc1 11.2 µM [inhibitor, full curve, poor fit]
Brc1ccccc1C1CC(c2ccccc2)=Nc2ccccc2N1 (centres undefined) 50.1 µM [inhibitor, partial curve, poor fit]
c1ccc(-c2cc3ncc4c(n3n2)-c2ccccc2OC4)cc1 39.8 µM [inhibitor, partial curve, poor fit]
CCc1nnc2c(N3CCN(c4cccc(C(F)(F)F)c4)CC3)nc3ccccc3n12 100 µM [inhibitor, partial curve, poor fit]
O=C(Cn1cc2c(n1)CCCC2)NCCCN1CCN(C2CCCCC2)CC1 17.8 µM [inhibitor, partial curve]

Potency, inactive:
CCn1c(SCc2ccc(Cl)cc2)nnc1-c1ccccc1
O=C(c1ccc(F)cc1F)N1CCC(c2nc(-c3ccc(S(=O)(=O)N4CCCC4)cc3)no2)CC1
CCCOc1ccc(C(=O)Nc2nonc2-c2ccc(OCC)cc2)cc1
O=C(Nc1ccc2c(c1)OCO2)c1ccc[n+]([O-])c1
COCCn1c(N)c(Sc2ccc(C)cc2)c(=O)[nH]c1=O
S=C(NN=C(c1ccccc1)c1ccccn1)N(Cc1ccccn1)Cc1ccccn1
COc1ccc(C2=C(C(C)=O)Sc3nnc(-c4ccc(Cl)cc4)n3N2C(C)=O)cc1OC
CCCCc1nn2c(=O)cc(COC(=O)c3ccccc3NC(=O)c3cccs3)nc2s1

Reprinted at random: two records from the list
Potency, inactive:
COc1ccc(C2=C(C(C)=O)Sc3nnc(-c4ccc(Cl)cc4)n3N2C(C)=O)cc1OC
O=C(Nc1ccc2c(c1)OCO2)c1ccc[n+]([O-])c1
